Laboratory results published in US20210238229A1, “PEPTIDE FOR DISEASE TREATMENT” (UNIVERSITY COLLEGE CORK - NATIONAL UNIVERSITY OF IRELAND, …, priority 2018, published 2021).
At least one peptide structure holds a part that was inferred or is arguable (an end, a ring closure or a residue). Where no end group is shown, it is not given here.

The chains behind the UniProt entries cited, without tags or fusion partners.
UniProt Q8TDS7, whole entry, species assumed: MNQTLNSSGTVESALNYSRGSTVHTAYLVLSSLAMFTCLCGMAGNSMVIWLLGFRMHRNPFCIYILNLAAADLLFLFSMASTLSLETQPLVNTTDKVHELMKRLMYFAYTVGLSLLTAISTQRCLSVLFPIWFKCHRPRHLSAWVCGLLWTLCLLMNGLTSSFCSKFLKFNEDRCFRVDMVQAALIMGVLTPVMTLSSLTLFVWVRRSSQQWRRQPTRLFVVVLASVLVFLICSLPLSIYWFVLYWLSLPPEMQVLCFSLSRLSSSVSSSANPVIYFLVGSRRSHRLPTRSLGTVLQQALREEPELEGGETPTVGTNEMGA

Experiments:
[1] = tested on: Human kidney cancer A498 cells; assay: Colony formation assay; type: cell-based; settings: daily treatment for 5 days
Method: Human kidney cancer A498 cells were seeded at 300 cells/well in a 6-well plate. The next day, cells were treated with various peptides daily. Each condition was run in triplicate. After 5 days of treatment, cells were washed once with PBS after media removal, stained with 0.5% crystal violet in 30% ethanol and 3% formaldehyde for 10 min at RT and washed with distilled water. Colonies were counted under the microscope.
Human renal cancer cells were treated with Ang-(1-6) or analogues and the effect on colony formation counted. Such cells are used for in vivo experiments in rodents when implanted subcutaneously or into the kidney to generate a rapidly forming and growing tumour, being leathal if untreated.

HUVEC = assay: cAMP in primary human umbilical vein endothelial cells; type: cell-based; settings: 15 min stimulation
Method: Primary human umbilical vein endothelial cells (HUVEC) were purchased from PromoCell (Heidelberg, Germany). HUVEC were cultured in 100 mm cell culture dishes and were seeded at 75,000 per well in 24-well plates at passage 5-7, for stimulation. Stimulation with Ang-(1-6) or C21 and the blockers was carried out as described above.
cAMP concentration in cell lysates was determined using Direct cAMP ELISA kit (Enzo Life Sciences Ltd., Exeter, United Kingdom). Briefly, wells of 96-well plate (Goat Anti-Rabbit IgG pre-coated) were neutralized with 50 μl of Neutralizing Reagent. Next, 100 μl of acetylated cAMP standard or cell lysate was added, followed by 50 μl of blue cAMP-Alkaline Phosphatase Conjugate and 50 μl of yellow EIA Rabbit Anti-cAMP antibody. The plate was then incubated on a shaker (˜400 rpm) at room temperature for 2 h. Next, the wells were aspirated and rinsed three times with Wash Buffer (1:10, Tris buffered saline containing detergents and sodium azide in deionized water). After the final wash, the plate was tapped against clean paper towel to remove any remaining Wash Buffer. […] The enzymatic reaction was stopped by adding 50 μl of Stop Solution, and the absorbance at 405 nm was measured immediately. The cAMP concentration was determined from non-linear standard curve using GraphPad Prism 6.0 software. […]

MrgD = target: T1, MrgD (Homo sapiens, UniProt Q8TDS7); assay: cAMP in MrgD-transfected HEK293 cells; type: cell-based; settings: MrgD-transfected HEK293, 15 min, 10^−14 to 10^−7 M
T1 construct: expressed in transfected cells; host or cells: HEK-293, transient transfection with PolyFect

AT2 receptor [2] = target: T2, AT2 receptor (Mus musculus, UniProt P35374); assay: cAMP in WT or AT2 KO primary kidney mesangial cells; type: cell-based, mice
T2 construct: WT or AT2 KO Primary mesangial cells were stimulated for 15 min; endogenous in cells; host or cells: primary kidney mesangial cells from C57/BL6 control mice, with AT2-deficient mice as negative control
T2 sequence (P35374 1-363): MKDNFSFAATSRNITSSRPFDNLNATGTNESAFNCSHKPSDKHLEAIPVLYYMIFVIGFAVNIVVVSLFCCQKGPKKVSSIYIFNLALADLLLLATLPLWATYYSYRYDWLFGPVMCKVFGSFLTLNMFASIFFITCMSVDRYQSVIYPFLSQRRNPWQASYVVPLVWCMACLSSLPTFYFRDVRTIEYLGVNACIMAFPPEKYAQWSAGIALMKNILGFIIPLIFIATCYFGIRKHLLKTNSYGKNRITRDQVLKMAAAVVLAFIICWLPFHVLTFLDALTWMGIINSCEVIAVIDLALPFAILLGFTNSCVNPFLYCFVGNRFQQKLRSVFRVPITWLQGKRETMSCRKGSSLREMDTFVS

[3] = tested on: Human Retinal Microvascular Endothelial Cells (HRMECs); assay: Endothelial barrier study (xCelligence, VEGF challenge); type: cell-based; settings: 15 min treatment, then VEGF 50 ng/ml
AT2 receptor [4] = target: T3, AT2 receptor (Homo sapiens, UniProt P50052); assay: cAMP in AT2-transfected HEK293 cells; type: cell-based
T3 construct: expressed in transfected cells; host or cells: HEK-293, transient transfection with PolyFect
T3 sequence (P50052 1-363): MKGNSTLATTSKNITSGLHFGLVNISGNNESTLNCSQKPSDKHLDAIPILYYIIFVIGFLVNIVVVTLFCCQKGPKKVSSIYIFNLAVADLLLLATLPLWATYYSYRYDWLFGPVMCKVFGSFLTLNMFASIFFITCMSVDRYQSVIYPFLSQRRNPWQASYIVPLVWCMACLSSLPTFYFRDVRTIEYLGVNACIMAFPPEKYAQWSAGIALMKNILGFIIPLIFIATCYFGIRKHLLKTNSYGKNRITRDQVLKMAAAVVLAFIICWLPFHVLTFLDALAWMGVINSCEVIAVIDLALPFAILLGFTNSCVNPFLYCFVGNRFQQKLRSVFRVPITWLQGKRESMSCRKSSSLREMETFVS
Method: Human embryonic kidney (HEK-293) cells were cultured in DMEM medium supplemented with FBS (10%), HEPES buffer (1%), sodium pyruvate (1%), and L-glutamine (1%) and maintained under standard conditions (5% CO2, 95% humidity and 37° C.). Cells were cultured in 100 mm cell culture dishes and seeded in 48-well plates at a density of 75,000 cells per well. The next day, HEK-293 cells were transfected using a transient transfection procedure following the manufacturer's instructions. […] The protein concentration was determined using Pierce BCA Protein Assay Kit according to the manufacturer's protocol (Thermo Fisher Scientific, Waltham, Mass., USA).
cAMP concentration in cell lysates was determined using Direct cAMP ELISA kit (Enzo Life Sciences Ltd., Exeter, United Kingdom). […] The enzymatic reaction was stopped by adding 50 μl of Stop Solution, and the absorbance at 405 nm was measured immediately. The cAMP concentration was determined from non-linear standard curve using GraphPad Prism 6.0 software. […]
AT2-transfected HEK293 cells were stimulated for 15 min with a range of concentrations (10^−13 to 10^−6 M) of C21, Ang (1-4) and Ang (1-7) PBS and the concentration of cAMP was measured in accordance with the methodology provided. […]

Mas = target: T4, Mas (Homo sapiens, UniProt P04201); assay: cAMP in Mas-transfected HEK293 cells; type: cell-based; settings: Mas-transfected HEK293, 15 min, 10^−14 to 10^−7 M
T4 construct: expressed in transfected cells; host or cells: HEK-293, transient transfection with PolyFect
T4 sequence (P04201 1-325): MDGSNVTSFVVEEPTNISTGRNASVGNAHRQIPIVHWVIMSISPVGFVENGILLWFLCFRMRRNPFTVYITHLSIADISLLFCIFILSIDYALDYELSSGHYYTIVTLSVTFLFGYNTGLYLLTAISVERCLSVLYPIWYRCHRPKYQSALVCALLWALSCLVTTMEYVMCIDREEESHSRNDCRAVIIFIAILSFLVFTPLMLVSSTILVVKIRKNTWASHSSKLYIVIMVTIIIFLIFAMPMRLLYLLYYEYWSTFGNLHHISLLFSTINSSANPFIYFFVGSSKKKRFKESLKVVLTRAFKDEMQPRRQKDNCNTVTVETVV

## DRVYIH [Ang (1-6), DRVYIH]
[1]
  number of colonies versus solvent (PBS): significant reduction of colonies
HUVEC
  cAMP stimulation in primary endothelial cells (HUVEC): cannot stimulate primary endothelial cells
MrgD
  cross-reaction with MrgD (cAMP): not cross-reacting
AT2 receptor [2]; 15 min, 10^−13 to 10^−7 M
  cAMP stimulation in primary kidney (mesangial) cells: stimulates cAMP in primary kidney cells
AT2 receptor [2]; WT versus AT2 KO mesangial cells, blockers 10^−6 M
  AT2 dependence of cAMP stimulation in primary kidney cells: completely AT2-dependent
[3]
  protection of endothelial barrier function: can protect the endothelial and epithelial barrier function
AT2 receptor [4]; AT2-transfected HEK293, 15 min stimulation
  intracellular cAMP production: increases intracellular cAMP production
AT2 receptor [4]; AT2-transfected HEK293, PTX and SQ-22536 inhibitor experiments
  G-protein activation via the AT2 receptor: Galpha s but not Galpha i activation
Mas
  cross-reaction with Mas (cAMP): not cross-reacting
